Laboratory results as given in paper PMC4673504.

B1: TAF1A (endogenous) (protein, UniProt Q15573 1-450)
chain: MSDFSEELKGPVTDDEEVETSVLSGAGMHFPWLQTYVETVAIGGKRRKDFAQTTSACLSFIQEALLKHQWQQAAEYMYSYFQTLEDSDSYKRQAAPEIIWKLGSEILFYHPKSNMESFNTFANRMKNIGVMNYLKISLQHALYLLHHGMLKDAKRNLSEAETWRHGENTSSREILINLIQAYKGLLQYYTWSEKKMELSKLDKDDYAYNAVAQDVFNHSWKTSANISALIKIPGVWDPFVKSYVEMLEFYGDRDGAQEVLTNYAYDEKFPSNPNAHIYLYNFLKRQKAPRSKLISVLKILYQIVPSHKLMLEFHTLLRKSEKEEHRKLGLEVLFGVLDFAGCTKNITAWKYLAKYLKNILMGNHLAWVQEEWNSRKNWWPGFHFSYFWAKSDWKEDTALACEKAFVAGLLLGKGCRYFRYILKQDHQILGKKIKRMKRSVKKYSIVNPRL
B2: TAF1B (endogenous) (protein, UniProt Q53T94 1-588)
chain: MDLEEAEEFKERCTQCAAVSWGLTDEGKYYCTSCHNVTERYQEVTNTDLIPNTQIKALNRGLKKKNNTEKGWDWYVCEGFQYILYQQAEALKNLGVGPELKNDVLHNFWKRYLQKSKQAYCKNPVYTTGRKPTVLEDNLSHSDWASEPELLSDVSCPPFLESGAESQSDIHTRKPFPVSKASQSETSVCSGSLDGVEYSQRKEKGIVKMTMPQTLAFCYLSLLWQREAITLSDLLRFVEEDHIPYINAFQHFPEQMKLYGRDRGIFGIESWPDYEDIYKKTVEVGTFLDLPRFPDITEDCYLHPNILCMKYLMEVNLPDEMHSLTCHVVKMTGMGEVDFLTFDPIAKMAKTVKYDVQAVAIIVVVLKLLFLLDDSFEWSLSNLAEKHNEKNKKDKPWFDFRKWYQIMKKAFDEKKQKWEEARAKYLWKSEKPLYYSFVDKPVAYKKREMVVNLQKQFSTLVESTATAGKKSPSSFQFNWTEEDTDRTCFHGHSLQGVLKEKGQSLLTKNSLYWLSTQKFCRCYCTHVTTYEESNYSLSYQFILNLFSFLLRIKTSLLHEEVSLVEKKLFEKKYSVKRKKSRSKKVRRH
B3: TAF1C (endogenous) (protein, UniProt Q15572 1-869)
chain: MDFPSSLRPALFLTGPLGLSDVPDLSFMCSWRDALTLPEAQPQNSENGALHVTKDLLWEPATPGPLPMLPPLIDPWDPGLTARDLLFRGGCRYRKRPRVVLDVTEQISRFLLDHGDVAFAPLGKLMLENFKLEGAGSRTKKKTVVSVKKLLQDLGGHQPWGCPWAYLSNRQRRFSILGGPILGTSVASHLAELLHEELVLRWEQLLLDEACTGGALAWVPGRTPQFGQLVYPAGGAQDRLHFQEVVLTPGDNPQFLGKPGRIQLQGPVRQVVTCTVQGESKALIYTFLPHWLTCYLTPGPFHPSSALLAVRSDYHCAVWKFGKQWQPTLLQAMQVEKGATGISLSPHLPGELAICSRSGAVCLWSPEDGLRQIYRDPETLVFRDSSSWRWADFTAHPRVLTVGDRTGVKMLDTQGPPGCGLLLFRLGAEASCQKGERVLLTQYLGHSSPKCLPPTLHLVCTQFSLYLVDERLPLVPMLKWNHGLPSPLLLARLLPPPRPSCVQPLLLGGQGGQLQLLHLAGEGASVPRLAGPPQSLPSRIDSLPAFPLLEPKIQWRLQERLKAPTIGLAAVVPPLPSAPTPGLVLFQLSAAGDVFYQQLRPQVDSSLRRDAGPPGDTQPDCHAPTASWTSQDTAGCSQWLKALLKVPLAPPVWTAPTFTHRQMLGSTELRREEEEGQRLGVLRKAMARGQLLLQRDLGSLPAAEPPPAPESGLEDKLSERLGEAWAGRGAAWWERQQGRTSEPGRQTRRPKRRTQLSSSFSLSGHVDPSEDTSSPHSPEWPPADALPLPPTTPPSQELTPDACAQGVPSEQRQMLRDYMAKLPPQRDTPGCATTPPHSQASSVRATRSQQHTPVLSSSQPLRKKPRMGF
B4: TAF1D (endogenous) (protein, UniProt Q9H5J8 1-278)
chain: MDKSGIDSLDHVTSDAVELANRSDNSSDSSLFKTQCIPYSPKGEKRNPIRKFVRTPESVHASDSSSDSSFEPIPLTIKAIFERFKNRKKRYKKKKKRRYQPTGRPRGRPEGRRNPIYSLIDKKKQFRSRGSGFPFLESENEKNAPWRKILTFEQAVARGFFNYIEKLKYEHHLKESLKQMNVGEDLENEDFDSRRYKFLDDDGSISPIEESTAEDEDATHLEDNECDIKLAGDSFIVSSEFPVRLSVYLEEEDITEEAALSKKRATKAKNTGQRGLKM

target: FLAG-tagged GAL4–AF4-2C fusion protein (human); test: affinity purification with mass spectrometry; fanChIP: chromatin fraction of 293T cells (cytoskeleton buffer extraction, MNase digestion, lysis buffer), anti-FLAG affinity purification, LC-MS/MS of gel pieces

| Binder | binding |
| --- | --- |
| B1 | binds |
| B2 | binds |
| B3 | binds |
| B4 | binds |

Results are given in words; binding and its absence hold for the method and conditions named. In cells and extracts the contact can be indirect. A yes stands for co-enrichment or nearness to the bait. Other partners may have been found.
